Assay results from PMC8713982, “Structure and RNA template requirements of Arabidopsis RNA-DEPENDENT RNA POLYMERASE 2”.
Results are given in words; binding and its absence hold for the method and conditions named.

Target: RNA-… RNA POLYMERASE 2 (Arabidopsis) (UniProt O82504)
Experiment: cryo-EM structure; single-particle cryo-EM of purified recombinant RDR2 alone (Titan Krios, 300 kV, K3 camera; no tilt and 30° tilt); both purified

B1: RNA-… RNA POLYMERASE 2 (enzyme, UniProt O82504 1-1133)
chain: MVSETTTNRSTVKISNVPQTIVADELLRFLELHLGEDTVFALEIPTTRDNWKPRDFARVQFTTLEVKSRAQLLSSQSKLLFKTHNLRLSEAYDDIIPRPVDPRKRLDDIVLTVGFPESDEKRFCALEKWDGVRCWILTEKRRVEFWVWESGDCYKIEVRFEDIIETLSCCVNGDASEIDAFLLKLKYGPKVFKRVTVHIATKFKSDRYRFCKEDFDFMWIRTTDFSGSKSIGTSTCFCLEVHNGSTMLDIFSGLPYYREDTLSLTYVDGKTFASAAQIVPLLNAAILGLEFPYEILFQLNALVHAQKISLFAASDMELIKILRGMSLETALVILKKLHQQSSICYDPVFFVKTQMQSVVKKMKHSPASAYKRLTEQNIMSCQRAYVTPSKIYLLGPELETANYVVKNFAEHVSDFMRVTFVEEDWSKLPANALSVNSKEGYFVKPSRTNIYNRVLSILGEGITVGPKRFEFLAFSASQLRGNSVWMFASNEKVKAEDIREWMGCFRKIRSISKCAARMGQLFSASRQTLIVRAQDVEQIPDIEVTTDGADYCFSDGIGKISLAFAKQVAQKCGLSHVPSAFQIRYGGYKGVIAVDRSSFRKLSLRDSMLKFDSNNRMLNVTRWTESMPCFLNREIICLLSTLGIEDAMFEAMQAVHLSMLGNMLEDRDAALNVLQKLSGENSKNLLVKMLLQGYAPSSEPYLSMMLRVHHESQLSELKSRCRILVPKGRILIGCMDEMGILEYGQVYVRVTLTKAELKSRDQSYFRKIDEETSVVIGKVVVTKNPCLHPGDIRVLDAIYEVHFEEKGYLDCIIFPQKGERPHPNECSGGDLDGDQFFVSWDEKIIPSEMDPPMDYAGSRPRLMDHDVTLEEIHKFFVDYMISDTLGVISTAHLVHADRDPEKARSQKCLELANLHSRAVDFAKTGAPAEMPYALKPREFPDFLERFEKPTYISESVFGKLYRAVKSSLAQRKPEAESEDTVAYDVTLEEAGFESFIETAKAHRDMYGEKLTSLMIYYGAANEEEILTGILKTKEMYLARDNRRYGDMKDRITLSVKDLHKEAMGWFEKSCEDEQQKKKLASAWYYVTYNPNHRDEKLTFLSFPWIVGDVLLDIKAENAQRQSVEEKTSGLVSI
- binding: no binding
